Results are given in words; binding and its absence hold for the method and conditions named. For some assays here: Binding calls can cover weak binding; strength is not graded here.
Columns and labels:
[1] = biological target: T1, LasR (yeast two-hybrid) (Pseudomonas aeruginosa (work done on strain PA1201)) (UniProt P25084); assay: two-hybrid; Matchmaker Gold Yeast System (Clontech), yeast strain AH109; QslA in the prey vector pGADT7, baits in pGBKT7; growth for 3 days at 30°C on SD-Leu-Trp-His and SD-Leu-Trp-His-Ade plates
T1 sequence: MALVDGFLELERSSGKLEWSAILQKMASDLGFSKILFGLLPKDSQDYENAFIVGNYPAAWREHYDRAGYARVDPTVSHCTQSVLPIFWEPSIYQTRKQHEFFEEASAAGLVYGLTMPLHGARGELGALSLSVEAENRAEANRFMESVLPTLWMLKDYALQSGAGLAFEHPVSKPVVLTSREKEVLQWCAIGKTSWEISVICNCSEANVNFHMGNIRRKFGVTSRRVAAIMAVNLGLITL

[2] = biological target: T2, RsaL (yeast two-hybrid) (Pseudomonas aeruginosa (work done on strain PA1201)) (UniProt Q9X7H4); assay: as above
T2 sequence: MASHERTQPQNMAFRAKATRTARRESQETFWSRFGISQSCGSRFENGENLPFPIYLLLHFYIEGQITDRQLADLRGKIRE

QslA (yeast two-hybrid prey, pGADT7) (Pseudomonas aeruginosa strain PA1201)
binding [1]: binds weakly | binding [2]: no binding

Reference: PMC6068238
